Results: paper PMC4947180
These are yes or no findings as the source states them, for the method shown. In cells and extracts the contact can be indirect. Some results given as binding are weak or reduced against the parent protein; the word gives no strength.

Chains of the proteins cited; added tags and fusions are not shown.
UniProt P58854: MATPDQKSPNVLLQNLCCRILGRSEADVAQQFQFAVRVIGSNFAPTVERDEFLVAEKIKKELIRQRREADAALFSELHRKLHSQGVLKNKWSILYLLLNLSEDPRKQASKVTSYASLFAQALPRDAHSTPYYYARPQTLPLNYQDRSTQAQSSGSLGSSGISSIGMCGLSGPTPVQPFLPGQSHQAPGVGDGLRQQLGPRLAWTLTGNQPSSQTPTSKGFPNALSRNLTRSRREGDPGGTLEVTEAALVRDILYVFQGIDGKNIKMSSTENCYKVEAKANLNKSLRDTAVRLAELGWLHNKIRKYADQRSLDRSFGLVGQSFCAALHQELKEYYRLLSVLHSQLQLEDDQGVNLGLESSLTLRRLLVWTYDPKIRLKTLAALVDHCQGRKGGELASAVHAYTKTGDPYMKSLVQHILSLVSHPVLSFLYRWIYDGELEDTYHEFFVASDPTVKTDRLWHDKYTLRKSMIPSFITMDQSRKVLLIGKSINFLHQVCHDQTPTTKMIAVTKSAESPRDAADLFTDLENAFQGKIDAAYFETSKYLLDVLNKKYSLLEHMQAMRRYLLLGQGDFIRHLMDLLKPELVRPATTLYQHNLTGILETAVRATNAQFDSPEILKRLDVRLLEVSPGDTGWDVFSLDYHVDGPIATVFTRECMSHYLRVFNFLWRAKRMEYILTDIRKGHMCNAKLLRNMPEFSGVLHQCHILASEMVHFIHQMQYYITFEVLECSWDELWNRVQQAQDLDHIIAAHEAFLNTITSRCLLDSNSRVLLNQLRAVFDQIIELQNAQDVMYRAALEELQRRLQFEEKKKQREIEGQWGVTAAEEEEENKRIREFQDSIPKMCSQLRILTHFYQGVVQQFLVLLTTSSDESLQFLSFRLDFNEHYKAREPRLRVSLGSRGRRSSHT
UniProt P33215: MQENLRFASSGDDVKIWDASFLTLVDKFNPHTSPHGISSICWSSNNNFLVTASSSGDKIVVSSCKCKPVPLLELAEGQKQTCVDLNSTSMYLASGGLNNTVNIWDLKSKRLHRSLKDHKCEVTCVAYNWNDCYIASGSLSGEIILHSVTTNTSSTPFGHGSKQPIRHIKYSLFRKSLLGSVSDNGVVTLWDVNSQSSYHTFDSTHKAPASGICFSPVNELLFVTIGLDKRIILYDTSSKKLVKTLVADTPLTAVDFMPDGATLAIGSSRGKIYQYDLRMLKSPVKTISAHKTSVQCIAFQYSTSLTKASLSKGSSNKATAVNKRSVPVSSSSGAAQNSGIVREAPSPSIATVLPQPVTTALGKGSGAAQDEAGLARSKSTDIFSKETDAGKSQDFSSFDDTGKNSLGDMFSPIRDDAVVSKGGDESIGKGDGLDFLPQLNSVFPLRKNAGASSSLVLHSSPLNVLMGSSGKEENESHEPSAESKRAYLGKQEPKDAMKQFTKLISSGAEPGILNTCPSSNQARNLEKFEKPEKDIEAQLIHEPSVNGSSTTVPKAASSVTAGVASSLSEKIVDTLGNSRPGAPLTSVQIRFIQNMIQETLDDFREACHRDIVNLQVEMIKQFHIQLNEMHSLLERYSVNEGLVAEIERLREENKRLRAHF

Biological target: γTuRC subunit GCP3 (mouse (endogenous in hippocampal cultures)) (UniProt P58854)
Test: co-IP; 3 DIV or 10 DIV hippocampal cultures lysed (50 mM Tris pH 7.4, 150 mM NaCl, 1 mM MgCl2, 1 mM EGTA, 10% glycerol, 1% Triton X-100); immunoprecipitation with anti-GCP3 antibody overnight or control IgG, Protein G-Sepharose; immunoblot

In the case of “γTuRC targeting subunit NEDD1 (from UniProt P33215 1-660)”, the binding is reported as “binds”.
